In ChEMBL document CHEMBL1156116, “Histone deacetylase and microtubules as targets for the synthesis of releasable conjugate compounds” (Bioorg Med Chem Lett, 2009):
pIC50: −log10 of the molar value.

Test system: IGROV-1
Assay: Antiproliferative activity against human IGROV1 cells assessed as growth inhibition after 72 hrs by Coulter counting analysis
Assay type: functional, cell-based
Conditions: IGROV-1, 72 h

Structure (SMILES): COc1cc2c(c(OC)c1OC)-c1ccc(SC)c(=O)cc1[C@@H](N)CC2
- pIC50: 7.64
